Measured values as given in the supplement of paper PMC10849652.
The other results are listed elsewhere or left out.

Amino acid sequences for entries named in this document (tags omitted). A change or cut given only in a name is not applied to a line headed by its entry.
UniProt Q14166: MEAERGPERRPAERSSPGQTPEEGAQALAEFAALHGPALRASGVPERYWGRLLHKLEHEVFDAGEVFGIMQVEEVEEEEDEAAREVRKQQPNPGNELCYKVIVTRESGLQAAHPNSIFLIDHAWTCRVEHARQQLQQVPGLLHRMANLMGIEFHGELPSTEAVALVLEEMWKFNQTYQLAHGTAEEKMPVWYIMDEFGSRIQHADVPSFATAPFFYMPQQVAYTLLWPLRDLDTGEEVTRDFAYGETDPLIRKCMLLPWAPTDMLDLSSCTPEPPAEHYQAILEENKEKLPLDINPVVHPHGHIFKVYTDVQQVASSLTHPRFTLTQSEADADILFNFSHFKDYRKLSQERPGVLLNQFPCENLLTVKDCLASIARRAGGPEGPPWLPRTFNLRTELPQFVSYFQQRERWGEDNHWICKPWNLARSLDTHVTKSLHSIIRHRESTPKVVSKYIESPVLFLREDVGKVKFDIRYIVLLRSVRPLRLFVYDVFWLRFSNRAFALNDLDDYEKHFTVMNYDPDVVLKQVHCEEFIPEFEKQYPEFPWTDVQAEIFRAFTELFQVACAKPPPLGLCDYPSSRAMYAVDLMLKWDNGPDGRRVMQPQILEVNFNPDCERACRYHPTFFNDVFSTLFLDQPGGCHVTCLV
UniProt Q9NUQ3: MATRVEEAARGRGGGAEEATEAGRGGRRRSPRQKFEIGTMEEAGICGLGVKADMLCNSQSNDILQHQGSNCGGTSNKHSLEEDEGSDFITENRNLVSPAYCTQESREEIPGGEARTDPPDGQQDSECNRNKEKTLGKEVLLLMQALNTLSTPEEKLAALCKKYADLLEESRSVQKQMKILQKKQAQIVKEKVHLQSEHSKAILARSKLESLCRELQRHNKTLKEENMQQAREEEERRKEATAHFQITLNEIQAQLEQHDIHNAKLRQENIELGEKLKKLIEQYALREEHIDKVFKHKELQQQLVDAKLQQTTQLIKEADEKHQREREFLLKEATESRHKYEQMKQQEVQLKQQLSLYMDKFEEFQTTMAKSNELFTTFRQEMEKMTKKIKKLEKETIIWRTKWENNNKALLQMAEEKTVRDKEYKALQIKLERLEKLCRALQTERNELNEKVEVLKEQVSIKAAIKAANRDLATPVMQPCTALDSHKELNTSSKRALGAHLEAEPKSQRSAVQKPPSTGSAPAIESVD
UniProt Q9GZX9: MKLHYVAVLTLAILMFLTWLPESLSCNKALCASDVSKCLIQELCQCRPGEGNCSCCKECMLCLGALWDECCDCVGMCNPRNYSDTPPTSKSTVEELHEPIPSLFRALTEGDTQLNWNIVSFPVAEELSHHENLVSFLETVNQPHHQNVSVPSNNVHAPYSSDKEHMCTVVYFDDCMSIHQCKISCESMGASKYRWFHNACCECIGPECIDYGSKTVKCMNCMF
UniProt Q712K3: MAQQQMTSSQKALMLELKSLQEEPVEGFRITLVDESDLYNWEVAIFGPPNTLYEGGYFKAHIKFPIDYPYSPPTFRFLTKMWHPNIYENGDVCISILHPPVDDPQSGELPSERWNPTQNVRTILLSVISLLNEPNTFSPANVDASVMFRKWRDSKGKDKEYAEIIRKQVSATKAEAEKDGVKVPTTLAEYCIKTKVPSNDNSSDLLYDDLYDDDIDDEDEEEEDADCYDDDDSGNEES
UniProt P68363, whole entry, looked up: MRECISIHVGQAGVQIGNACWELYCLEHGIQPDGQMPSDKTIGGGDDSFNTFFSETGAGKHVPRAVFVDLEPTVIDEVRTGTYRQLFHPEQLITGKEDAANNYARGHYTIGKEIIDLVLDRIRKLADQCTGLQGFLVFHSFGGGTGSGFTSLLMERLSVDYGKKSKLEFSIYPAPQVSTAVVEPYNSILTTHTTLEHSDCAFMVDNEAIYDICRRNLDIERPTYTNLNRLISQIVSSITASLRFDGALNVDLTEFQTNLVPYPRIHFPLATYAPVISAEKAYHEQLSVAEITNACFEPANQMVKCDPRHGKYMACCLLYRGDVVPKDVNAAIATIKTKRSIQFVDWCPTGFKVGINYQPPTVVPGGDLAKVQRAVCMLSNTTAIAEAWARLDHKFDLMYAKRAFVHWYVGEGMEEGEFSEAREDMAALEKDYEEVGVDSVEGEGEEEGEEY
UniProt P62253: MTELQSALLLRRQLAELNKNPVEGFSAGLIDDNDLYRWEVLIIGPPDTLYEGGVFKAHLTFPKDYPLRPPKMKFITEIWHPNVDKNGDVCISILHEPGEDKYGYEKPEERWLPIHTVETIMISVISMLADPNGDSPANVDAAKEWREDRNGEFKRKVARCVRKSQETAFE
UniProt P63279, whole entry, looked up: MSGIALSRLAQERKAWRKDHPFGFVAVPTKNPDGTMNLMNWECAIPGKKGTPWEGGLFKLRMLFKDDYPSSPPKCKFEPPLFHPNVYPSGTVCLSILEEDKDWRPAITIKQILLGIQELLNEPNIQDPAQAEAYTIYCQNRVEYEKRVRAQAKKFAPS
UniProt Q99598: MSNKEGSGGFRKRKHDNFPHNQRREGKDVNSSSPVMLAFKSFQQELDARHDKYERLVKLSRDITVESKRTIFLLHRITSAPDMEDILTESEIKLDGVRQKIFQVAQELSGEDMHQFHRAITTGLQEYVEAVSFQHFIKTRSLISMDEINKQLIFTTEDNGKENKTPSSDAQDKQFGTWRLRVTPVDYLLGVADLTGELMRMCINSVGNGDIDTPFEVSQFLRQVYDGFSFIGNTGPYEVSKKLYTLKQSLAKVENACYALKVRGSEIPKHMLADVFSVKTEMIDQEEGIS
UniProt P0CG48, whole entry, looked up: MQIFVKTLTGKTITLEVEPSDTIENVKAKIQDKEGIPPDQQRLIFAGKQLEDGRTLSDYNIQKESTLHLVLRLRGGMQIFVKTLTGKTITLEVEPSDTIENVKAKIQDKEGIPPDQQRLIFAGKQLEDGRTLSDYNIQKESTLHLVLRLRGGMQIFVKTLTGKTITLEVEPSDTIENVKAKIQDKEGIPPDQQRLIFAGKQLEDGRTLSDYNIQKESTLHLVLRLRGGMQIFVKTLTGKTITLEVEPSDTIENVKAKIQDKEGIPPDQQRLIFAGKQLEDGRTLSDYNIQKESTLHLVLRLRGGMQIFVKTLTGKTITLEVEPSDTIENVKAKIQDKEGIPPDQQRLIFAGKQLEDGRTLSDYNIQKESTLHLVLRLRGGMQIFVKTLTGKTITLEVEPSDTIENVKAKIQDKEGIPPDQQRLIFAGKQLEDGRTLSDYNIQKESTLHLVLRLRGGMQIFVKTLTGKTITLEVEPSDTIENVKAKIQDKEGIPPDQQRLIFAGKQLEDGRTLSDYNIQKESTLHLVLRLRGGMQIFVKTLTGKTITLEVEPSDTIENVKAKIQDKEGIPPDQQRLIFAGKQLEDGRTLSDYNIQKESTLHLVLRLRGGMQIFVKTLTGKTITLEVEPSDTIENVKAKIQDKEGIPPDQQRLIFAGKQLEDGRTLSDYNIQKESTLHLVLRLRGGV
UniProt Q8N5M4: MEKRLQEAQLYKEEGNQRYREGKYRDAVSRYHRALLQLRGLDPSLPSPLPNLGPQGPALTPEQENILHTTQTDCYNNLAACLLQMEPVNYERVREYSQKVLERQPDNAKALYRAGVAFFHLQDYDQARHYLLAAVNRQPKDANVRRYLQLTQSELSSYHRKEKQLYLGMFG
UniProt P49459, whole entry, looked up: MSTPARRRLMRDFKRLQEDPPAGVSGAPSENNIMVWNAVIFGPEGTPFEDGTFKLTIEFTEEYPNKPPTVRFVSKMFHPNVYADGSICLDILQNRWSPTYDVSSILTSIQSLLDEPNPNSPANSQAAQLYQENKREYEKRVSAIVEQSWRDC
UniProt Q9BUF5, whole entry, looked up: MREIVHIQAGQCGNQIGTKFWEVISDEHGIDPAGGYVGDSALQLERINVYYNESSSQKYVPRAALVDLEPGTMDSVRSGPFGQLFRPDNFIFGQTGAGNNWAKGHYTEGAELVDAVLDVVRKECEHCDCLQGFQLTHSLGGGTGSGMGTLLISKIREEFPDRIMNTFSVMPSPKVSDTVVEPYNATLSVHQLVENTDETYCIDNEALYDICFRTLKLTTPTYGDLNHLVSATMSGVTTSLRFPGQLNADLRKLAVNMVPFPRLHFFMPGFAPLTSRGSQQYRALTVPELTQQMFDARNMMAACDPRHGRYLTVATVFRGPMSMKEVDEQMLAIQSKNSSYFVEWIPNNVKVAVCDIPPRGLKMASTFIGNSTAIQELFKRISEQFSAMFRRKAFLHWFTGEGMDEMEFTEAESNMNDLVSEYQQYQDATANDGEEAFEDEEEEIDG
UniProt Q15631: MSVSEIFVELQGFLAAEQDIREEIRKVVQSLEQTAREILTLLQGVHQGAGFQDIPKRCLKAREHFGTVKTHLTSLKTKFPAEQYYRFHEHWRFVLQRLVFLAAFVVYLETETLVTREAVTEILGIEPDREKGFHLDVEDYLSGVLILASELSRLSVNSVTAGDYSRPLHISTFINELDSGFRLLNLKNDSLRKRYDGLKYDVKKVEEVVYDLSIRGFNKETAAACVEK
UniProt Q9BSJ2, whole entry, looked up: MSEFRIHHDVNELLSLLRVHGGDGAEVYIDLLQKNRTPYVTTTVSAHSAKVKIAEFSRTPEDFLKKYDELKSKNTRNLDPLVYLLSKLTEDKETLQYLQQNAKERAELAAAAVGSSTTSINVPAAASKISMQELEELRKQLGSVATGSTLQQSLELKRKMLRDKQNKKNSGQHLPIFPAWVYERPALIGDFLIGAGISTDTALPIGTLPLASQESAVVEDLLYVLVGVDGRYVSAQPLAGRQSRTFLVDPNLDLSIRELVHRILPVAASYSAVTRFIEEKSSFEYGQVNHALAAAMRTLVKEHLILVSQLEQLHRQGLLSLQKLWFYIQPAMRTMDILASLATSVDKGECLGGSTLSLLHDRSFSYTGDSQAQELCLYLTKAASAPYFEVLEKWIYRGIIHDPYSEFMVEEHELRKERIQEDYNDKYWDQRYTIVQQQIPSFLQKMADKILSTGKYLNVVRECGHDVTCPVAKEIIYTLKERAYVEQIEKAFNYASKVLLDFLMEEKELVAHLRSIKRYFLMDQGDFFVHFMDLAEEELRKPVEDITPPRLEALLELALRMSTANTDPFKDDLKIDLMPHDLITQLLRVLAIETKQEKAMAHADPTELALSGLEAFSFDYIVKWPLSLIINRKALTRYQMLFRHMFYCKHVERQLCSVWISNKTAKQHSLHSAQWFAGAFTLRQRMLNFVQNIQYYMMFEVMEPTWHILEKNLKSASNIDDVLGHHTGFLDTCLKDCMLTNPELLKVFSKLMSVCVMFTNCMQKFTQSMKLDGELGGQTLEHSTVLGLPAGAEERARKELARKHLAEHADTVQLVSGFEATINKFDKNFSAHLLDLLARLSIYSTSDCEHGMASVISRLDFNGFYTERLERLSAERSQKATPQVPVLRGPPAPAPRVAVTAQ
UniProt P40222: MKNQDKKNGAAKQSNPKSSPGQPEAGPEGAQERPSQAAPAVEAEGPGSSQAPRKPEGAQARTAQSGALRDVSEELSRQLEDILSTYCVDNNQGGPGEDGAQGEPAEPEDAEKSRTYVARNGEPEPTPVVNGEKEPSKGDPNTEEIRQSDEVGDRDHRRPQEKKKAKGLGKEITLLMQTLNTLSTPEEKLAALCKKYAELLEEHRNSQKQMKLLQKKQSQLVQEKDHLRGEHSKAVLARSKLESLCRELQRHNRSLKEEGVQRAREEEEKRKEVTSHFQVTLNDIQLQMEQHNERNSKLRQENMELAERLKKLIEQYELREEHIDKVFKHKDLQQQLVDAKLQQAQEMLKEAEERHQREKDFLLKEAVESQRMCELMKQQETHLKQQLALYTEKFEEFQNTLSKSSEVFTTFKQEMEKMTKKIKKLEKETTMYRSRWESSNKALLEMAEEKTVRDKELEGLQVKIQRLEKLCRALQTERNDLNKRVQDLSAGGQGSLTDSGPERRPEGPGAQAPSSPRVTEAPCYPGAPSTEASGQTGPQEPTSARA
UniProt Q13509, whole entry, looked up: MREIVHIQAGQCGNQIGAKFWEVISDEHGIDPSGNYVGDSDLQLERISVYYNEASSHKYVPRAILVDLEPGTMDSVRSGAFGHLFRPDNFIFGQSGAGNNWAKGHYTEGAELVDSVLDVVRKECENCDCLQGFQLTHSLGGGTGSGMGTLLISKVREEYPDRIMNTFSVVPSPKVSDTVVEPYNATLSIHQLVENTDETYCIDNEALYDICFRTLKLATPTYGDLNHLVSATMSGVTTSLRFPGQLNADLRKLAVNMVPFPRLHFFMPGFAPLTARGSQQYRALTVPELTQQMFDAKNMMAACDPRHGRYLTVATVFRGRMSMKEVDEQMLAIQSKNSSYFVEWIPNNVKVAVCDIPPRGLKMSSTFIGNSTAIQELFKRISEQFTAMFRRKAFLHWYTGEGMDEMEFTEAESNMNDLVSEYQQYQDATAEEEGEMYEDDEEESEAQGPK

Legend:
Assay in all cases: log2 fold change, soluble protein after heating vs DMSO (PISA); higher = thermal stabilisation; K562 cells, 10 uM, 30 min; active = over 0.2 and 3.5 SD of the protein, either way, in both replicates (recomputed)
bafetinib = compound: Cc1ccc(NC(=O)c2ccc(CN3CC[C@H](N(C)C)C3)c(C(F)(F)F)c2)cc1Nc1nccc(-c2cncnc2)n1 [bafetinib]
In short: (§1)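 Values are thermal stability changes relative to control samples and are taken from duplicates. They are stated as log2 fold changes. Before quantification by TMTpro 16plex LC-MS/MS with equalised channel sums, K562 cells at 2×10^6 cells/mL were treated with 10 μM compound for 30 min, heated in aliquots for 3 min across 48°C-58°C, pooled, extracted in PBS with 0.5% NP-40 at 4°C, and centrifuged at 21,000xg for 90 min to give the soluble supernatant.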

[1] = compound: Cc1cccc(CC(=O)N2CCc3c2ccc(-c2cn(C)c4ncnc(N)c24)c3F)n1
In short: as §1

nilotinib = compound: Cc1cn(-c2cc(NC(=O)c3ccc(C)c(Nc4nccc(-c5cccnc5)n4)c3)cc(C(F)(F)F)c2)cn1 [nilotinib]
In short: as §1

[2] = compound: Cc1nc(Nc2n[nH]c3c2CN(C(=O)N[C@H](CN(C)C)c2ccccc2)C3(C)C)c2sccc2n1
In short: as §1

dasatinib = compound: Cc1nc(Nc2ncc(C(=O)Nc3c(C)cccc3Cl)s2)cc(N2CCN(CCO)CC2)n1 [dasatinib]
In short: as §1

[3] = compound: Cc1ncc(-c2ccnc(Nc3ccc(S(C)(=O)=O)cc3)n2)n1C(C)C
In short: as §1

[4] = compound: Cn1cc(-c2ccc3c(c2)CCN3C(=O)Cc2cccc(C(F)(F)F)c2)c2c(N)ncnc21
In short: as §1

[5] = compound: Cn1cc(-c2ccc3nnc(C(F)(F)c4ccc5ncccc5c4)n3n2)cn1
In short: as §1

tipifarnib = compound: Cn1cncc1[C@@](N)(c1ccc(Cl)cc1)c1ccc2c(c1)c(-c1cccc(Cl)c1)cc(=O)n2C [tipifarnib]
In short: as §1

mubritinib = compound: FC(F)(F)c1ccc(/C=C/c2nc(COc3ccc(CCCCn4ccnn4)cc3)co2)cc1 [mubritinib]
In short: as §1

[6] = compound: NC(=O)Nc1cc(-c2cccc(F)c2)sc1C(=O)N[C@H]1CCCNC1
In short: as §1

[7] = compound: NC(=O)c1cnc(N[C@@H]2CCCC[C@@H]2N)nc1Nc1cccc(-n2nccn2)c1
In short: as §1

[8] = compound: NC1(c2ccc(-c3nc4ccn5c(=O)[nH]nc5c4cc3-c3ccccc3)cc2)CCC1
In short: as §1

[9] = compound: NCC(=O)Nc1ccc(-n2nc(C(F)(F)F)cc2-c2ccc3c(ccc4ccccc43)c2)cc1
In short: as §1

entinostat = compound: Nc1ccccc1NC(=O)c1ccc(CNC(=O)OCc2cccnc2)cc1 [entinostat]
In short: as §1

vorinostat = compound: O=C(CCCCCCC(=O)Nc1ccccc1)NO [vorinostat]
In short: as §1

citarinostat = compound: O=C(CCCCCCNC(=O)c1cnc(N(c2ccccc2)c2ccccc2Cl)nc1)NO [citarinostat]
In short: as §1

silmitasertib = compound: O=C(O)c1ccc2c(c1)nc(Nc1cccc(Cl)c1)c1ccncc12 [silmitasertib]
In short: as §1

[10] = compound: O=C1NC(=O)C(c2cnc3ccccn23)=C1c1cn2c3c(cc(F)cc13)CN(C(=O)N1CCCCC1)CC2
In short: as §1

[11] = compound: c1cc(OCCN2CCCCC2)cc(-c2n[nH]c3ccc(-c4nnc[nH]4)cc23)c1
In short: as §1

Measured: log2 fold change

TTLL12 (UniProt Q14166)
inactive: bafetinib 0.171 | [1] 0.11 | nilotinib -0.186 | [2] -0.056 | dasatinib 0.018 | [3] -0.023 | [4] -0.299 | [5] -0.226 | tipifarnib -0.116 | mubritinib -0.246 | [6] 0.137 | [7] 0.002 | [8] 0.183 | [9] 0.123 | entinostat 0.081 | vorinostat 0.063 | citarinostat -0.068 | silmitasertib 0.154 | [10] 0.146 | [11] -0.161

TXLNG (UniProt Q9NUQ3)
inactive: bafetinib -0.005 | [1] 0.034 | nilotinib 0.003 | [2] -0.001 | dasatinib 0.001 | [3] 0.004 | [4] 0.032 | [5] 0 | tipifarnib 0.02 | mubritinib 0.042 | [6] 0.064 | [7] -0.048 | [8] -0.031 | [9] -0.03 | entinostat 0.042 | vorinostat 0.011 | citarinostat 0.04 | silmitasertib 0.003 | [10] -0.02 | [11] 0.003

TWSG1 (UniProt Q9GZX9)
inactive: bafetinib -0.049 | [1] -0.072 | nilotinib -0.019 | [2] 0.015 | dasatinib -0.084 | [3] -0.011 | [4] 0.042 | [5] -0.053 | tipifarnib 0.009 | mubritinib 0.012 | [6] 0.001 | [7] 0.029 | [8] -0.007 | [9] 0.013 | entinostat -0.09 | vorinostat -0.02 | citarinostat 0.049 | silmitasertib 0.002 | [10] -0.113 | [11] 0.032

UBE2R2 (UniProt Q712K3)
inactive: bafetinib -0.078 | [1] 0.039 | nilotinib -0.038 | [2] -0.022 | dasatinib -0.063 | [3] -0.032 | [4] 0.012 | [5] -0.017 | tipifarnib -0.016 | mubritinib -0.021 | [6] -0.023 | [7] -0.122 | [8] -0.058 | [9] -0.044 | entinostat 0.055 | vorinostat -0.027 | citarinostat 0.059 | silmitasertib 0.035 | [10] -0.05 | [11] -0.06

TUBA1B (UniProt P68363)
inactive: bafetinib 0.001 | [1] 0.024 | nilotinib -0.018 | [2] 0.019 | dasatinib -0.049 | [3] -0.049 | [4] 0.05 | [5] 0.049 | tipifarnib -0.001 | mubritinib 0.052 | [6] -0.005 | [7] 0.005 | [8] -0.041 | [9] 0 | entinostat -0.012 | vorinostat 0.028 | citarinostat 0.022 | silmitasertib -0.04 | [10] 0.003 | [11] -0.023

UBE2G1 (UniProt P62253)
inactive: bafetinib -0.05 | [1] -0.049 | nilotinib 0.005 | [2] -0.024 | dasatinib -0.002 | [3] 0.009 | [4] 0.045 | [5] -0.009 | tipifarnib 0 | mubritinib 0.063 | [6] 0 | [7] -0.046 | [8] -0.062 | [9] -0.001 | entinostat 0 | vorinostat -0.132 | citarinostat 0.051 | silmitasertib -0.047 | [10] 0.001 | [11] 0.008

UBE2I (UniProt P63279)
inactive: bafetinib -0.049 | [1] 0.059 | nilotinib 0.001 | [2] -0.043 | dasatinib -0.023 | [3] -0.02 | [4] 0.072 | [5] 0.065 | tipifarnib 0 | mubritinib 0.06 | [6] -0.048 | [7] -0.035 | [8] -0.027 | [9] -0.047 | entinostat 0.024 | vorinostat 0.032 | citarinostat 0.027 | silmitasertib -0.032 | [10] -0.046 | [11] 0.024

Reprinted at random: two records from the list, in no set order.
TXLNG (UniProt Q9NUQ3)
inactive: bafetinib -0.005 | [1] 0.034 | nilotinib 0.003 | [2] -0.001 | dasatinib 0.001 | [3] 0.004 | [4] 0.032 | [5] 0 | tipifarnib 0.02 | mubritinib 0.042 | [6] 0.064 | [7] -0.048 | [8] -0.031 | [9] -0.03 | entinostat 0.042 | vorinostat 0.011 | citarinostat 0.04 | silmitasertib 0.003 | [10] -0.02 | [11] 0.003

UBE2G1 (UniProt P62253)
inactive: bafetinib -0.05 | [1] -0.049 | nilotinib 0.005 | [2] -0.024 | dasatinib -0.002 | [3] 0.009 | [4] 0.045 | [5] -0.009 | tipifarnib 0 | mubritinib 0.063 | [6] 0 | [7] -0.046 | [8] -0.062 | [9] -0.001 | entinostat 0 | vorinostat -0.132 | citarinostat 0.051 | silmitasertib -0.047 | [10] 0.001 | [11] 0.008

(continued)

TSNAX (UniProt Q99598)
inactive: bafetinib -0.032 | [1] -0.025 | nilotinib 0.006 | [2] 0.021 | dasatinib 0.037 | [3] -0.008 | [4] 0 | [5] 0.027 | tipifarnib 0.016 | mubritinib -0.022 | [6] -0.007 | [7] 0.015 | [8] 0.017 | [9] 0.02 | entinostat -0.035 | vorinostat -0.002 | citarinostat 0.005 | silmitasertib -0.001 | [10] -0.052 | [11] -0.008

UBC (UniProt P0CG48)
inactive: bafetinib 0.055 | [1] -0.156 | nilotinib 0.116 | [2] 0.013 | dasatinib 0.02 | [3] -0.025 | [4] 0.003 | [5] 0.07 | tipifarnib -0.051 | mubritinib 0.005 | [6] -0.003 | [7] -0.022 | [8] 0.214 | [9] 0.01 | entinostat -0.023 | vorinostat -0.11 | citarinostat -0.13 | silmitasertib -0.076 | [10] -0.117 | [11] -0.068

TTC9C (UniProt Q8N5M4)
inactive: bafetinib -0.079 | [1] -0.037 | nilotinib -0.044 | [2] 0.002 | dasatinib -0.178 | [3] 0.029 | [4] 0.162 | [5] -0.018 | tipifarnib -0.037 | mubritinib 0.046 | [6] 0.063 | [7] 0.026 | [8] -0.119 | [9] 0.043 | entinostat 0.067 | vorinostat 0.041 | citarinostat 0.012 | silmitasertib -0.016 | [10] -0.037 | [11] 0.017

UBE2A (UniProt P49459)
inactive: bafetinib -0.113 | [1] -0.047 | nilotinib -0.026 | [2] -0.023 | dasatinib -0.145 | [3] 0.03 | [4] 0.063 | [5] -0.029 | tipifarnib -0.032 | mubritinib 0.069 | [6] -0.11 | [7] 0.021 | [8] -0.079 | [9] -0.037 | entinostat -0.019 | vorinostat -0.008 | citarinostat 0.004 | silmitasertib -0.076 | [10] -0.094 | [11] 0.071

TUBB6 (UniProt Q9BUF5)
inactive: bafetinib -0.039 | [1] 0 | nilotinib 0.016 | [2] 0.003 | dasatinib -0.027 | [3] -0.006 | [4] 0.061 | [5] 0.007 | tipifarnib -0.056 | mubritinib 0.036 | [6] -0.044 | [7] 0.06 | [8] -0.031 | [9] 0.009 | entinostat -0.035 | vorinostat 0.015 | citarinostat 0.019 | silmitasertib -0.063 | [10] -0.01 | [11] -0.066

TSN (UniProt Q15631)
inactive: bafetinib 0.045 | [1] -0.028 | nilotinib -0.015 | [2] 0.034 | dasatinib -0.006 | [3] -0.016 | [4] 0.032 | [5] -0.014 | tipifarnib -0.038 | mubritinib 0.017 | [6] 0.093 | [7] 0.027 | [8] 0.021 | [9] 0.075 | entinostat 0.01 | vorinostat 0.007 | citarinostat -0.011 | silmitasertib -0.08 | [10] 0.006 | [11] 0.002

TUBGCP2 isoform 4 (UniProt Q9BSJ2)
inactive: bafetinib -0.137 | [1] 0.046 | nilotinib -0.015 | [2] -0.242 | dasatinib -0.198 | [3] 0.003 | [4] -0.035 | [5] -0.184 | tipifarnib 0.043 | mubritinib 0.095 | [6] -0.008 | [7] -0.019 | [8] -0.038 | [9] 0.04 | entinostat -0.106 | vorinostat 0.15 | citarinostat -0.025 | silmitasertib 0.012 | [10] 0.082 | [11] -0.079

TXLNA (UniProt P40222)
inactive: bafetinib -0.006 | [1] -0.015 | nilotinib 0.002 | [2] -0.023 | dasatinib -0.038 | [3] -0.009 | [4] 0.019 | [5] -0.02 | tipifarnib -0.016 | mubritinib 0.073 | [6] 0 | [7] -0.016 | [8] -0.036 | [9] -0.042 | entinostat 0.008 | vorinostat -0.01 | citarinostat 0.027 | silmitasertib 0.008 | [10] -0.012 | [11] 0.002

TUBB3 (UniProt Q13509)
inactive: bafetinib 0.003 | [1] 0.02 | nilotinib 0.053 | [2] -0.008 | dasatinib -0.05 | [3] -0.026 | [4] 0.079 | [5] -0.007 | tipifarnib -0.017 | mubritinib 0.058 | [6] 0.015 | [7] 0.108 | [8] -0.037 | [9] 0.079 | entinostat -0.04 | vorinostat 0.018 | citarinostat 0.063 | silmitasertib -0.06 | [10] -0.017 | [11] -0.019
